From the supplement of paper PMC10849652
Some of the results follow.

Chains of the proteins cited; added tags and fusions are not shown. Lines headed by an entry give the natural chain unless they say otherwise; changes in a name come on top.
UniProt Q7Z4Q2: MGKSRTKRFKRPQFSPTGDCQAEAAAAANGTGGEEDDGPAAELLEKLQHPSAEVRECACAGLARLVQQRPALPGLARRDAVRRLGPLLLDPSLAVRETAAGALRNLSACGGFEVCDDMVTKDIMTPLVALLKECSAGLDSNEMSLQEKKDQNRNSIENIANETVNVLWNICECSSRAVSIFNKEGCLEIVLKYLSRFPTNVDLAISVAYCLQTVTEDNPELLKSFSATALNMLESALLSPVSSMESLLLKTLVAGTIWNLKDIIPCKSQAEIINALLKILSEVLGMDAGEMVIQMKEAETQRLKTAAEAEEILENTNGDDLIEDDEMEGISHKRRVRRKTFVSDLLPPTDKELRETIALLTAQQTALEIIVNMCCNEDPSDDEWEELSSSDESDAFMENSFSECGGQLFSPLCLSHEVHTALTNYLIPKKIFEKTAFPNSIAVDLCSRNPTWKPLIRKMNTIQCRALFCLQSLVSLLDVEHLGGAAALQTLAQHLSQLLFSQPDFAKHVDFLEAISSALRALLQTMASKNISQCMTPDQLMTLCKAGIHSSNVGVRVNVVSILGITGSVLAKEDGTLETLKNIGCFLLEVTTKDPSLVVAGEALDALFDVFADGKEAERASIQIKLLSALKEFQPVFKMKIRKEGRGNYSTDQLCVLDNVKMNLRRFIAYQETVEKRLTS
UniProt P40939: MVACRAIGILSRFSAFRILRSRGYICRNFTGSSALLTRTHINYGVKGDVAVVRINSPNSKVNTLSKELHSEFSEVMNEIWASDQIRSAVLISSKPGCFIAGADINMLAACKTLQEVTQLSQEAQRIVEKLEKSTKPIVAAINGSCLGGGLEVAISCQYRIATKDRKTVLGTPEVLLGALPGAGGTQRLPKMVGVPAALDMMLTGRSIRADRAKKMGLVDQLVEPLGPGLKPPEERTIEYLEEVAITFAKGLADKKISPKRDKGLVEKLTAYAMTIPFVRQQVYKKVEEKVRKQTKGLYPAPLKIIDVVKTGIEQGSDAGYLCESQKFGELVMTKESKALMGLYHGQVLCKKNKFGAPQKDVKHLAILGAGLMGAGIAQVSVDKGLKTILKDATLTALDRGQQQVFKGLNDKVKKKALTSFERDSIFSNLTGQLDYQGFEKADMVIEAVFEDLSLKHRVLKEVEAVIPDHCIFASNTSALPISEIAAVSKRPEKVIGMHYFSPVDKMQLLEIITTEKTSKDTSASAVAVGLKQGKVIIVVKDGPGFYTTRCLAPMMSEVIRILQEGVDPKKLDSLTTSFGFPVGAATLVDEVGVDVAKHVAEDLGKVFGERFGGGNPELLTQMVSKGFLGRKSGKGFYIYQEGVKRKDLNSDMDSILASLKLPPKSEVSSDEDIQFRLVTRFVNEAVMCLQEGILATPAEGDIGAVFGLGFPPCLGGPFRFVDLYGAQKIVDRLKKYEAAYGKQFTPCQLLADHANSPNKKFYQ
UniProt A4D1E9: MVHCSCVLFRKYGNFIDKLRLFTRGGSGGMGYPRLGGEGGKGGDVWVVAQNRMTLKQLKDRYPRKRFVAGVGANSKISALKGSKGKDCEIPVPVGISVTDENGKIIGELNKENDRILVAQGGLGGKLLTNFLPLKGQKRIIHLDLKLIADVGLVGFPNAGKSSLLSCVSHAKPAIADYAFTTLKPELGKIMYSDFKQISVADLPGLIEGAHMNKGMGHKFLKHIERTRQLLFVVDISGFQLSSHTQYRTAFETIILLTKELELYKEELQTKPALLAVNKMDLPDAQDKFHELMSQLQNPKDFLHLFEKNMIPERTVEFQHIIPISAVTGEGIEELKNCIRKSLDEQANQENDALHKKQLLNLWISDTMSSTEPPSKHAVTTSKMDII
UniProt P48637: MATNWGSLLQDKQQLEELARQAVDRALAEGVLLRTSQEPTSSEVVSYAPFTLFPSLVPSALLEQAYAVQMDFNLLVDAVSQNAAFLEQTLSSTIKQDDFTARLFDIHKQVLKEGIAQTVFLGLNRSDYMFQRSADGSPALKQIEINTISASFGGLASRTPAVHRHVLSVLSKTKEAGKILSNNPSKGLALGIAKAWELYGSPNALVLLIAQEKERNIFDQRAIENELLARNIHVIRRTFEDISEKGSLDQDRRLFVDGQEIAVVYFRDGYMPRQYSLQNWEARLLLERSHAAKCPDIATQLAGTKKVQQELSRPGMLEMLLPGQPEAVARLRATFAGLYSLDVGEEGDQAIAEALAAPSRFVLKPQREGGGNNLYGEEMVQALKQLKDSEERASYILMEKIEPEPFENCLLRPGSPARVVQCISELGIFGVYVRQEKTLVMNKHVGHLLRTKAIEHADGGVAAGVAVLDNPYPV
UniProt Q9UKN8: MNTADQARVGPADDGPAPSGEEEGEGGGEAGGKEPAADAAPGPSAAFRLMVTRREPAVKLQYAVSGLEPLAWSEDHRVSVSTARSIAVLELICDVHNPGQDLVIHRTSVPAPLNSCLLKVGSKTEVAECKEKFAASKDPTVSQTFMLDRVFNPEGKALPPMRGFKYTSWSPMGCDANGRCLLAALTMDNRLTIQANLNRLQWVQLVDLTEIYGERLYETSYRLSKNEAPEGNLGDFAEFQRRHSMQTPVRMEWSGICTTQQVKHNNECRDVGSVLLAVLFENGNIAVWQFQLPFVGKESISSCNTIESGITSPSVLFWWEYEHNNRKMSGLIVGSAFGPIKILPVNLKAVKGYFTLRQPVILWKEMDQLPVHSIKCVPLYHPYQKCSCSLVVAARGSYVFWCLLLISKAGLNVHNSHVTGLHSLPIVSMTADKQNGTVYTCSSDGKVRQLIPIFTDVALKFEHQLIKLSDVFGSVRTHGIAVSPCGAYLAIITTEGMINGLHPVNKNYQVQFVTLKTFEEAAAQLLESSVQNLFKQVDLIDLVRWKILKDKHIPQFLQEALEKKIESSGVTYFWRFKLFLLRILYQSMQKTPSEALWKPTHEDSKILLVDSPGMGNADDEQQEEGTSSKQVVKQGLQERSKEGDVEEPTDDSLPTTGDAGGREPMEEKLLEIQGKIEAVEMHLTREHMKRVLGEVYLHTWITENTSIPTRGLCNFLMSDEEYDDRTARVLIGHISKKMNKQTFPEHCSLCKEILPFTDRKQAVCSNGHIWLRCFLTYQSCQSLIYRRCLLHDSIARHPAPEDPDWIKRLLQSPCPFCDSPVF
UniProt Q86XA9: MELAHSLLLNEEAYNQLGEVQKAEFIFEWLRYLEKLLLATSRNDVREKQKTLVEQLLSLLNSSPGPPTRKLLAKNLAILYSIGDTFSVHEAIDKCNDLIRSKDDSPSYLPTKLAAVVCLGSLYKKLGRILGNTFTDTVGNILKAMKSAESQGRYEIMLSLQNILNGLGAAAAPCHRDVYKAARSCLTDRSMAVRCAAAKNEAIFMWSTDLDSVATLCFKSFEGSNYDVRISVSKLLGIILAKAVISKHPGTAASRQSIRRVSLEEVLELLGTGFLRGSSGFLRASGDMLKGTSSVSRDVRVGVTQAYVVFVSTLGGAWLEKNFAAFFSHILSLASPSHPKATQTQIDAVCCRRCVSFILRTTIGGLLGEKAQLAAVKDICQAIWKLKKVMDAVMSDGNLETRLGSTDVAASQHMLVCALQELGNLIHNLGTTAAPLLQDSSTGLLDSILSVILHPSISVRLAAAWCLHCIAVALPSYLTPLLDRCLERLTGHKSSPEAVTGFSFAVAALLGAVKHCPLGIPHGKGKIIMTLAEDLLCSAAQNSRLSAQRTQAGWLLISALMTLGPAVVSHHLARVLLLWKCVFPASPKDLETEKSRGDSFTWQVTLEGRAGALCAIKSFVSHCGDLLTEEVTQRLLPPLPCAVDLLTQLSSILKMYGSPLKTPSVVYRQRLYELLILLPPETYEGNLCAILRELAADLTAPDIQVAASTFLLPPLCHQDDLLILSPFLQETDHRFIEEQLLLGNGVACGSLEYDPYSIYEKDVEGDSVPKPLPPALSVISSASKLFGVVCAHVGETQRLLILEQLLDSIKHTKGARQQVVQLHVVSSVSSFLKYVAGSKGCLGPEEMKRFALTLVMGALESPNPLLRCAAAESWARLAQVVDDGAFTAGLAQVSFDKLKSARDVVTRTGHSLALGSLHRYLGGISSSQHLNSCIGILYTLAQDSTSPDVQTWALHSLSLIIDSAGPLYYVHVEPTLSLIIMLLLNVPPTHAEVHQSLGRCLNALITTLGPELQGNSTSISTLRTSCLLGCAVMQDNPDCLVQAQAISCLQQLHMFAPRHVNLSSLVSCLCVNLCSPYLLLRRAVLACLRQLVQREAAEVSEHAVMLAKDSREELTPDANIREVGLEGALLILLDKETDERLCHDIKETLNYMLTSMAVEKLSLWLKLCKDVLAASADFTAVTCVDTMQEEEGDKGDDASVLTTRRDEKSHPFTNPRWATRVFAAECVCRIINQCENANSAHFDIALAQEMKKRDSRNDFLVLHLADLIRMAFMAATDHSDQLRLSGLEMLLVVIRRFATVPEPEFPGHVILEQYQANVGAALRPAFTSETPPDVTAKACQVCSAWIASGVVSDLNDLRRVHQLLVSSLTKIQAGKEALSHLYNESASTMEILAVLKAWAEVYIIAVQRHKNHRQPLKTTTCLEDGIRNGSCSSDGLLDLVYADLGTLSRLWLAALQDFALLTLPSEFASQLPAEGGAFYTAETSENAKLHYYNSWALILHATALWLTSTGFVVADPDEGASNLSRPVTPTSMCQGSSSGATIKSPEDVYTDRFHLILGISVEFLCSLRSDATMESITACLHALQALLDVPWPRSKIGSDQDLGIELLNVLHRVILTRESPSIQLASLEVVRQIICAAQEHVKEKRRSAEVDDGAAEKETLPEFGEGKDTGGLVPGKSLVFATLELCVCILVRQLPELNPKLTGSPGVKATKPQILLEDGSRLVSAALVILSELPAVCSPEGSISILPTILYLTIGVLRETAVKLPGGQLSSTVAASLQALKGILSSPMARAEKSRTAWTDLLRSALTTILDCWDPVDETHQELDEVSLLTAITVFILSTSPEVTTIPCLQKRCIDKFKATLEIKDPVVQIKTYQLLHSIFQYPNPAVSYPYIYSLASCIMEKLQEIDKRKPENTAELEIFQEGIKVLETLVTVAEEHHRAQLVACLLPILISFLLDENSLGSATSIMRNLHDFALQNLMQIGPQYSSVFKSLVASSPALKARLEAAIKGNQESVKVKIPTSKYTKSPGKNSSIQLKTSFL
UniProt P51858: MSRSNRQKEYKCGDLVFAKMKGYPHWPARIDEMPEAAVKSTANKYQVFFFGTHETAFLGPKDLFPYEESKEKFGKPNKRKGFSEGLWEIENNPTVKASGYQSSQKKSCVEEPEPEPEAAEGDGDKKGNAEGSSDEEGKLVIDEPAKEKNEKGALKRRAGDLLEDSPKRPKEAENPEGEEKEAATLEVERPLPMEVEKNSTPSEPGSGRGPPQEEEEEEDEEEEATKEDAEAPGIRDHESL
UniProt Q9UJ83: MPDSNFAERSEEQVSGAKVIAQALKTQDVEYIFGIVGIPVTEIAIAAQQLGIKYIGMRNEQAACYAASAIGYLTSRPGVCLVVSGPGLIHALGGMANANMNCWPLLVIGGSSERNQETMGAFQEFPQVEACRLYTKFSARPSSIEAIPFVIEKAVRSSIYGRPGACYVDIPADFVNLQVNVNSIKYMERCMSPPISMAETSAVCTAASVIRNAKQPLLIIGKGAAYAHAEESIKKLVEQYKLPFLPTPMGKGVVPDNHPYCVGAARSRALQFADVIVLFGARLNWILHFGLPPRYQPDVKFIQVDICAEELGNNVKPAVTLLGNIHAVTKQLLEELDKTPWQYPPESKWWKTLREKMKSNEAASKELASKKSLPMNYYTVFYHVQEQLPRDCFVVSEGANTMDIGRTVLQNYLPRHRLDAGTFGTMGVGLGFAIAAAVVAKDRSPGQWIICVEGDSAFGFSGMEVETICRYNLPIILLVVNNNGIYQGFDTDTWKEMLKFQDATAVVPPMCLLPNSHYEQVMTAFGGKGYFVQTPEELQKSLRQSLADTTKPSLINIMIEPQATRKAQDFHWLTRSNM
UniProt P10412, whole entry, looked up: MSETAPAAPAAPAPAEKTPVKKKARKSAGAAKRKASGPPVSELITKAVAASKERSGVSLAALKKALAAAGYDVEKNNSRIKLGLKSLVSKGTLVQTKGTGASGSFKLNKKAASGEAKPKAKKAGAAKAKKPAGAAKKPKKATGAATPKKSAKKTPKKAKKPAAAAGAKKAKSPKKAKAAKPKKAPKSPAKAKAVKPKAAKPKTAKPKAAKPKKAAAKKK
UniProt Q00403, whole entry, looked up: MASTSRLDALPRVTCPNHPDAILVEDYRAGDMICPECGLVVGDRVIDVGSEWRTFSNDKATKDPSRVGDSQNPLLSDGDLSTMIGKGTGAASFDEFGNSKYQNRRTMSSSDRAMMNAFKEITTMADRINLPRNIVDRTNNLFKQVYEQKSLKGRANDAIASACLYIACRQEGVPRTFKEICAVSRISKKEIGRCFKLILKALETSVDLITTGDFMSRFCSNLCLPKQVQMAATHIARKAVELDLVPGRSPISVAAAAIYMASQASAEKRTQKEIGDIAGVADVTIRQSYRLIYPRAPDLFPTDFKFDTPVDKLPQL

Assays:
Assay in all cases: log2 fold change, soluble protein after heating vs DMSO (PISA); higher = thermal stabilisation; K562 lysate, 10 uM; active = over 0.2 and 3.5 SD of the protein, either way, in both replicates (recomputed)
[1] = compound: CN1CC[C@H](c2c(O)cc(O)c3c(=O)cc(-c4ccccc4Cl)oc23)[C@H](O)C1 [alvocidib]
Method in brief: (§1)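 Dounce homogenisation of K562 pellets in PBS pH 7.4 with 1 mM MgCl2 produced a crude extract, used at 1 mg/mL protein. Exposure to 10 μM compound lasted 30 min, and aliquots were then heated for 3 min across 48°C-58°C, pooled and brought to 0.5% NP-40 at 4°C. The supernatant after 21,000xg for 90 min was quantified by TMTpro 16plex LC-MS/MS with channel sums equalised. Duplicate values are given as log-two fold change in thermal stability relative to solvent controls.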

[2] = compound: CN1CCc2c(c3ccccc3n2Cc2ccc(C(=O)NO)cc2)C1 [Tubastatin A]
Method in brief: as §1

[3] = compound: CNC(=O)C1=CC=CC=C1NC2=NC(=NC=C2Cl)NC3=C(C=C(C=C3)N4CCOCC4)OC
Method in brief: as §1

[4] = compound: CNC(=O)c1ccc(Nc2ncc(C(F)(F)F)c(NCc3nccnc3N(C)S(C)(=O)=O)n2)cc1 [defactinib]
Method in brief: as §1

[5] = compound: CNc1nc(-c2ccc3c(N)n[nH]c3c2)cc(N2C[C@@H](C(=O)NC3CCCCC3)CC[C@H]2C)n1
Method in brief: as §1

[6] = compound: COC(=O)N[C@@H](C)CNc1nccc(-c2cn(C(C)C)nc2-c2cc(Cl)cc(NS(C)(=O)=O)c2F)n1 [encorafenib]
Method in brief: as §1

[7] = compound: COC(=O)[C@H](CCSC)NC(=O)C1=C(C=C(C=C1)NC[C@H](CS)N)C2=CC=CC=C2
Method in brief: as §1

[8] = compound: COc1cc(Nc2ncc3c(n2)-c2ccc(Cl)cc2C(c2c(F)cccc2OC)=NC3)ccc1C(=O)O [alisertib]
Method in brief: as §1

[9] = compound: COc1cc2nc(-c3cc(F)ccc3O)nc(N[C@@H]3CNC[C@H]3C(C)(C)O)c2cc1OC
Method in brief: as §1

[10] = compound: COc1cc2ncnc(Nc3ccc(F)c(Cl)c3)c2cc1OCCCN1CCOCC1 [gefitinib]
Method in brief: as §1

Measured: log2 fold change

HEATR3 (UniProt Q7Z4Q2)
inactive: [1] 0.007 | [2] -0.129 | [3] 0.02 | [4] 0.012 | [5] 0 | [6] 0.014 | [7] 0.116 | [8] 0.018 | [9] -0.046 | [10] 0.003

HARS (UniProt P12081)
active: [7] 0.254
inactive: [1] 0 | [2] 0.001 | [3] -0.02 | [4] -0.02 | [5] -0.054 | [6] -0.03 | [8] 0.003 | [9] 0.015 | [10] 0.007

GTF2F1 (UniProt P35269)
inactive: [1] -0.029 | [2] 0.068 | [3] 0.01 | [4] 0.003 | [5] 0.066 | [6] 0.003 | [7] -0.014 | [8] -0.011 | [9] 0 | [10] -0.015

GSPT2 (UniProt Q8IYD1)
inactive: [1] -0.046 | [2] -0.042 | [3] 0.037 | [4] 0.037 | [5] 0.028 | [6] 0 | [7] 0.026 | [8] 0.02 | [9] 0.009 | [10] -0.016

HADHA (UniProt P40939)
inactive: [1] -0.011 | [2] -0.003 | [3] 0.069 | [4] -0.042 | [5] 0.037 | [6] -0.063 | [7] 0.088 | [8] -0.017 | [9] -0.041 | [10] 0.021

HAUS2 (UniProt Q9NVX0)
inactive: [1] 0.069 | [2] -0.079 | [3] 0.041 | [4] -0.171 | [5] -0.047 | [6] 0.088 | [7] 0.043 | [8] -0.037 | [9] 0.014 | [10] -0.049

GPX4 (UniProt P36969)
inactive: [1] 0.031 | [2] -0.099 | [3] -0.006 | [4] 0.048 | [5] -0.051 | [6] 0.004 | [7] -0.023 | [8] 0.041 | [9] 0 | [10] 0.016

HEATR1 (UniProt Q9H583)
inactive: [1] -0.024 | [2] 0.001 | [3] 0.014 | [4] 0.016 | [5] -0.02 | [6] 0.064 | [7] 0.028 | [8] 0.024 | [9] -0.007 | [10] -0.003

H2AZ1 (UniProt P0C0S5)
inactive: [1] -0.038 | [2] 0.062 | [3] -0.054 | [4] 0.014 | [5] 0.142 | [6] -0.023 | [7] 0.042 | [8] -0.004 | [9] 0.009 | [10] -0.027

GTF3C1 (UniProt Q12789)
inactive: [1] -0.064 | [2] -0.134 | [3] 0.01 | [4] -0.009 | [5] -0.004 | [6] 0.057 | [7] 0.089 | [8] 0.014 | [9] -0.004 | [10] 0.008

HBG1 (UniProt P69891)
inactive: [1] 0.086 | [2] 0.056 | [3] 0.017 | [4] 0.091 | [5] 0.014 | [6] 0.007 | [7] -0.034 | [8] 0.022 | [9] -0.026 | [10] -0.119

GTPBP10 (UniProt A4D1E9)
inactive: [1] -0.011 | [2] -0.158 | [3] -0.04 | [4] 0.014 | [5] 0.016 | [6] -0.024 | [7] 0.226 | [8] -0.068 | [9] 0.017 | [10] -0.023

HDAC10 (UniProt Q969S8)
inactive: [1] 0.033 | [3] -0.075 | [4] -0.135 | [5] -0.014 | [6] 0.091 | [7] 0.08 | [8] 0.047 | [9] -0.006 | [10] 0.165
active: [2] 0.49

GSS (UniProt P48637)
inactive: [1] 0.002 | [2] 0.01 | [3] 0 | [4] 0.016 | [5] -0.007 | [6] 0.004 | [7] -0.019 | [8] -0.006 | [9] -0.009 | [10] 0.016

GTF2H1 (UniProt P32780)
inactive: [1] -0.053 | [2] -0.023 | [3] 0.05 | [4] 0.041 | [5] 0.031 | [6] -0.004 | [7] -0.059 | [8] 0.065 | [9] -0.021 | [10] -0.015

HAUS6 (UniProt Q7Z4H7)
inactive: [1] -0.043 | [2] -0.084 | [3] 0.008 | [4] 0.031 | [5] -0.004 | [6] 0.031 | [7] -0.025 | [8] 0.03 | [9] 0.019 | [10] 0.017

GTF3C4 (UniProt Q9UKN8)
inactive: [1] 0.011 | [2] -0.03 | [3] -0.013 | [4] 0.015 | [5] -0.015 | [6] 0.034 | [7] -0.004 | [8] 0.005 | [9] 0.022 | [10] 0

GYPC (UniProt P04921)
inactive: [1] 0.081 | [2] 0.271 | [3] 0.119 | [4] 0.052 | [5] 0.088 | [6] 0.03 | [7] -0.052 | [8] 0.076 | [9] 0.024 | [10] 0.099

HACE1 (UniProt Q8IYU2)
inactive: [1] -0.177 | [2] 0.006 | [3] -0.042 | [4] -0.06 | [5] 0.278 | [6] -0.057 | [7] 0.18 | [8] 0.061 | [9] 0.045 | [10] -0.152

HAX1 (UniProt O00165)
inactive: [1] 0.019 | [2] -0.103 | [3] 0.074 | [4] -0.002 | [5] -0.022 | [6] 0.027 | [7] 0.128 | [8] 0.008 | [9] -0.031 | [10] -0.014

HEATR5A (UniProt Q86XA9)
inactive: [1] -0.005 | [2] -0.043 | [3] 0.011 | [4] -0.065 | [5] 0.016 | [6] 0.032 | [7] -0.057 | [8] -0.026 | [9] 0.004 | [10] 0.002

Retrieved one by one from above, 2 records:
HEATR5A (UniProt Q86XA9)
inactive: [1] -0.005 | [2] -0.043 | [3] 0.011 | [4] -0.065 | [5] 0.016 | [6] 0.032 | [7] -0.057 | [8] -0.026 | [9] 0.004 | [10] 0.002

HAX1 (UniProt O00165)
inactive: [1] 0.019 | [2] -0.103 | [3] 0.074 | [4] -0.002 | [5] -0.022 | [6] 0.027 | [7] 0.128 | [8] 0.008 | [9] -0.031 | [10] -0.014

(listing goes on)

HDGF (UniProt P51858)
inactive: [1] 0.033 | [2] 0.049 | [3] -0.012 | [4] -0.03 | [5] 0.01 | [6] -0.025 | [7] -0.021 | [8] 0.002 | [9] 0.013 | [10] -0.006

GRPEL1 (UniProt Q9HAV7)
inactive: [1] -0.014 | [2] 0.005 | [3] -0.006 | [4] -0.023 | [5] 0.026 | [6] -0.033 | [7] -0.007 | [8] 0.015 | [9] 0.007 | [10] -0.01

GSTM3 (UniProt P21266)
inactive: [1] 0.029 | [2] -0.085 | [3] -0.03 | [4] 0.011 | [5] -0.015 | [6] 0.02 | [7] 0.03 | [8] -0.088 | [9] -0.007 | [10] -0.084

HACL1 (UniProt Q9UJ83)
inactive: [1] 0.01 | [2] 0.004 | [3] 0.016 | [4] -0.006 | [5] -0.003 | [6] 0.025 | [7] -0.052 | [8] -0.031 | [9] 0.014 | [10] -0.009

GTF3C2 (UniProt Q8WUA4)
inactive: [1] -0.007 | [2] -0.103 | [3] 0.034 | [4] 0.026 | [5] 0.025 | [6] -0.041 | [7] 0.057 | [8] 0.029 | [9] 0.037 | [10] 0.008

H1-4 (UniProt P10412)
inactive: [1] -0.021 | [2] 0.006 | [3] 0.037 | [4] -0.016 | [5] 0.005 | [6] 0.025 | [7] -0.108 | [8] -0.017 | [9] 0.012 | [10] -0.075

GSTCD (UniProt Q8NEC7)
inactive: [1] 0.03 | [2] -0.13 | [3] 0.055 | [4] -0.002 | [5] -0.013 | [6] 0.052 | [7] 0.138 | [8] -0.068 | [9] 0.002 | [10] 0

GTF2B (UniProt Q00403)
inactive: [1] 0.019 | [2] -0.033 | [3] 0.04 | [4] -0.009 | [5] -0.028 | [6] -0.012 | [7] -0.114 | [8] 0.05 | [9] 0.005 | [10] 0.035

HDAC3 (UniProt E7ESJ6)
inactive: [9] -0.005
